From PubChem BioAssay AID1487 (National Center for Advancing Translational Sciences (NCATS), 2009)
This is one part of the list. Shown are side measurements of this screen, not its main read-out; they come without a call. Most of these compounds were active or inconclusive in the main read-out, so they are no random draw. Potencies come from curve fits of mixed quality, noted in brackets.

Experiment: qHTS Assay for Modulators of Lamin A Splicing
Settings: HeLa LMNA splicing GFP/RFP minigene ratio, 48 h
In short: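 S3 HeLa cells stably expressing lamin A-EGFP splicing minigene plus DsRed2, 600 cells/well, 48 h compound exposure at 37C. Laser-scanning cytometry; analysed as GFP (500-530 nm)/RFP (575-640 nm) total intensity ratio; 0.5% DMSO vehicle.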

[1] = measured here: RFP viability control channel
[2] = measured here: GFP splicing reporter channel

| SMILES | AC50 [1] | AC50 [2] |
| --- | --- | --- |
| CC(C)(C)NC(=O)c1cnn2c1NC(c1ccc(F)cc1)CC2C(F)(F)F (stereo unspecified) | 0.0398 µM [falling, full curve, poor fit] | – |
| CC(O)CNc1nc2c(c(=O)n(C)c(=O)n2C)n1Cc1cccc(C(F)(F)F)c1 (stereo unspecified) | 12.6 µM [rising, partial curve] | – |
| COc1ccc(-n2c(-c3ccccc3)nnc2-c2ccc(Cl)cc2)cc1 | – | 0.158 µM [rising, full curve, poor fit] |
| COc1ccc(NS(=O)(=O)c2ccc(NC(=S)NC(=O)c3ccc(Br)cc3)cc2)nn1 | 31.6 µM [rising, single point] | – |
| Cc1cc(Br)ccc1NC(=O)C(C)c1ccc([N+](=O)[O-])cc1 (stereo unspecified) | 11.2 µM [rising, partial curve, poor fit] | – |
| Cc1coc2c1c(C)cc1oc(=O)c(Cc3ccccc3)c(C)c12 | 2.82 µM [falling, partial curve, poor fit] | – |
| Cc1ccc2nc(SCC(=O)Nc3ccc4sc(C)nc4c3)c(C#N)cc2c1 | 2.24 µM [rising, full curve, poor fit] | – |
| C=CCN(CC=C)c1ccc(N2C(=O)C3CCCCC3C2=O)cc1[N+](=O)[O-] (stereo unspecified) | 35.5 µM [falling, single point] | – |
| Cc1cc(Cl)c(S(=O)(=O)NC2CCCC2)cc1OCC(=O)NC1CCCCC1 | 4.47 µM [rising, full curve] | 3.98 µM [rising, full curve] |
| O=C(COC(=O)CNC(=O)c1ccc2c(c1)OCO2)Nc1ncc(Cl)cc1Cl | 20 µM [rising, single point] | – |
| O=C(Nc1ccc(-c2nc3ccccc3o2)cc1)c1ccc(N2C(=O)C3C4C=CC(C4)C3C2=O)cc1 (stereo unspecified) | 10 µM [rising, partial curve] | 22.4 µM [rising, partial curve] |
| COc1ccc([N+](=O)[O-])cc1NC(=O)CSc1ccc2ccccc2c1 | 15.8 µM [rising, partial curve] | 12.6 µM [rising, single point] |
| CCNc1nc(OC)nc(N2CCC(Cc3ccccc3)CC2)n1 | 35.5 µM [rising, single point] | 35.5 µM [rising, single point] |
| Cc1c(CCOC(=O)c2ccccc2)sc[n+]1Cc1ccccc1 | 20 µM [rising, single point] | 12.6 µM [rising, single point] |
| COc1ccc(N(CC(=O)NCCC2=CCCCC2)S(=O)(=O)c2ccccc2)cc1OC | 0.00501 µM [falling, full curve, poor fit] | 8.91 µM [falling, partial curve, poor fit] |
| CCC(=O)c1ccc(OCC(O)CN2CCN(c3cccc(C(F)(F)F)c3)CC2)cc1 (stereo unspecified) | 11.2 µM [rising, partial curve, poor fit] | – |
| CC1=C(C(=O)OCc2ccc3c(c2)OCO3)C(c2ccc(F)cc2)NC(=O)N1 (stereo unspecified) | 11.2 µM [rising, partial curve] | 20 µM [rising, partial curve, poor fit] |
| CC1C(=O)C(C)C(c2ccc([N+](=O)[O-])cc2)NC1c1ccc([N+](=O)[O-])cc1 (stereo unspecified) | 3.98 µM [falling, partial curve, poor fit] | – |
| O=C(COc1ccccc1)Nc1cccc(-c2nnc(-c3ccccc3)o2)c1 | 20 µM [rising, single point] | – |
| CCOc1ccc(C2C(C(=O)Nc3cc(C)on3)c3ccccc3C(=O)N2CCN2CCOCC2)cc1 (stereo unspecified) | 1.41 µM [rising, partial curve, poor fit] | – |
| CCOC(=O)c1csc(NC(=O)c2cc(OC)c(OC)c(OC)c2)n1 | 3.55 µM [rising, single point] | 35.5 µM [falling, single point] |
| CC(=O)C1=C(c2ccccc2)NC(=S)NC1c1cc(Cl)c(OC(C)C)c(Cl)c1 (stereo unspecified) | – | 35.5 µM [falling, single point] |
| CCOC(=O)c1c(NC(=O)CSc2nnnn2C)sc(C)c1-c1ccc(C)cc1 | 12.6 µM [rising, partial curve] | 35.5 µM [rising, single point] |
| Cn1c(=O)c2c(nc(NCCCO)n2Cc2cccc(Br)c2)n(C)c1=O | 15.8 µM [rising, single point] | 12.6 µM [rising, partial curve] |
| O=C(CN(C(=O)CSc1nc2ccccc2o1)c1ccccc1F)NC1CCCCC1 | 15.8 µM [rising, single point] | – |
| Cc1ccc(NC(=O)c2ccc(CN3CC(=O)N4CCCCC4C3=O)cc2)c(C)c1 (stereo unspecified) | – | 0.0224 µM [falling, full curve, poor fit] |

Exported with bars between the fields: two of the compounds above.
SMILES | AC50 [1] | AC50 [2]
Cc1c(CCOC(=O)c2ccccc2)sc[n+]1Cc1ccccc1 | 20 µM [rising, single point] | 12.6 µM [rising, single point]
CCOC(=O)c1c(NC(=O)CSc2nnnn2C)sc(C)c1-c1ccc(C)cc1 | 12.6 µM [rising, partial curve] | 35.5 µM [rising, single point]

Continuation:

| SMILES | AC50 [1] | AC50 [2] |
| --- | --- | --- |
| NCCS(=O)O | 6.31 µM [falling, single point] | 6.31 µM [falling, single point] |
| Cc1ccc(-n2ncc3c(N4CCN(c5ccccc5)CC4)ncnc32)c(C)c1 | 3.55 µM [rising, full curve] | 5.62 µM [rising, full curve, poor fit] |
| CC(CNc1ccc([N+](=O)[O-])c2cccnc12)Nc1c([N+](=O)[O-])cc(C(F)(F)F)cc1[N+](=O)[O-] (stereo unspecified) | 14.1 µM [rising, partial curve, poor fit] | – |
| COc1cc2c3c(c1)C(C)=CC(C)(C)N3C(=O)C2=O | 35.5 µM [falling, single point] | 35.5 µM [falling, single point] |
| Cc1cc(=O)[nH]c(SCCOc2ccc(OC(C)C)cc2)n1 | 14.1 µM [rising, partial curve] | – |
| COc1ccc(-c2nc3ccccn3c2CN2CCN(c3ccccc3F)CC2)cc1 | 35.5 µM [falling, partial curve, poor fit] | 35.5 µM [falling, single point] |
| COc1ccc(-c2nnc(SCC(=O)NC(C)c3ccccc3)o2)cc1OC (stereo unspecified) | – | 35.5 µM [rising, single point] |
| C=C1C(=O)C=C2CN(C(=O)c3ccccc3)[C@@](Cc3ccc(F)cc3)(C(=O)OC)[C@@H]12 | 3.55 µM [rising, partial curve] | 1.78 µM [rising, partial curve] |
| Cc1ccc(-c2nnn(CC(=O)N3CCN(c4nc5ccccc5s4)CC3)n2)cc1 | 2.24 µM [rising, partial curve, poor fit] | 2.24 µM [rising, partial curve, poor fit] |
| S=C(NCc1ccccc1)N1CCN(c2cccc(Cl)c2)CC1 | 35.5 µM [rising, single point] | – |
| CC(C)c1ccc(C(=O)NC(=S)NCc2cccnc2)cc1 | 15.8 µM [rising, partial curve] | 11.2 µM [rising, partial curve] |
| COc1ccc(N(Cc2ccccc2)C(=O)CSc2nnc(Cn3nnc4ccccc43)o2)cc1 | 35.5 µM [rising, single point] | – |
| CCN(CC)c1ccc(-c2c(C#N)c(N)nc(OC)c2C#N)cc1 | – | 35.5 µM [falling, single point] |
| COc1ccc(C(=O)Cn2nnc(-c3ccccc3NC(=O)C3CCCCC3)n2)cc1 | 10 µM [rising, single point] | – |
| C=CCNC(=S)NC(=O)c1oc2ccccc2c1C | – | 31.6 µM [rising, single point] |
| Cc1ccc(C(=O)c2cccc(N)c2)cc1C | 12.6 µM [falling, partial curve, poor fit] | 35.5 µM [falling, single point] |
| COC(=O)c1ccc(N2CN=C(c3ccc(C)cc3)NC2=S)cc1 | 2.51 µM [rising, full curve, poor fit] | 2 µM [rising, full curve] |
| Cc1ccc(C)c(N2CCN(CCCNC(=O)c3cnn(-c4ccc(F)cc4)c3C3CCN(C(=O)OC(C)(C)C)CC3)CC2)c1 | 22.4 µM [falling, single point] | 14.1 µM [falling, partial curve] |
| C/C(CC(C)(C)C1CCCCC1)=N\NC(N)=S | 17.8 µM [rising, single point] | 11.2 µM [rising, single point] |
| CCn1cc(C(=O)NCc2cccc(F)c2)c(=O)c2cc(F)c(N3CCN(C(=O)c4ccco4)CC3)cc21 | 20 µM [rising, single point] | 17.8 µM [rising, single point] |
| COc1ccc(-c2cnc(C)o2)cc1S(=O)(=O)Nc1ccc(OC(F)(F)F)cc1 | – | 0.891 µM [falling, full curve, poor fit] |
| COc1ccc(NC(=O)C2CCCN(c3c4c(nc5ncnn35)CCC4)C2)cc1 (stereo unspecified) | 12.6 µM [rising, partial curve] | 11.2 µM [rising, partial curve] |
| Cc1ccc(NC(=O)C(OC(=O)c2ccc(O)cc2)c2ccccc2)cc1Cl (stereo unspecified) | 31.6 µM [rising, single point] | – |
| COc1cc(OC)cc(C(=O)Nc2ccc(CN3CCCCC3)cc2)c1 | 0.00447 µM [falling, full curve, poor fit] | 0.00501 µM [falling, full curve] |
| O=C(CCS(=O)(=O)c1ccccc1)N(Cc1cccnc1)c1nc2ccc(F)cc2s1 | 31.6 µM [falling, partial curve, poor fit] | 4.47 µM [falling, full curve] |
